Results: the supplement of paper PMC9578143, “Small-Molecule Ebselen Binds to YTHDF Proteins Interfering with the Recognition of N^6-Methyladenosine-Modified RNAs” (ACS Pharmacology & Translational Science, 2022)
The other results are listed elsewhere or left out. Part of the spread comes from offsets between plates or batches.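 Hits were defined as a z-score below −3.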

target: T1, YTHDF1 YTH domain (aa 365-554) (UniProt Q9BYJ9); experiment: tryptophan fluorescence intensity z-score (mean); higher = higher fluorescence, less quenching (negative = binding / quenching); settings: 10 µM
T1 sequence (whole entry): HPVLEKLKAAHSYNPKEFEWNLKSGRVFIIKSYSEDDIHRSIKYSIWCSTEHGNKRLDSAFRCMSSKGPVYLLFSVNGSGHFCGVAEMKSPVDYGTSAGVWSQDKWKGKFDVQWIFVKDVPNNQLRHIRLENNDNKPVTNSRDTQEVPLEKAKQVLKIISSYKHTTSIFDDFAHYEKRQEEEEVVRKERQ

Structure (SMILES) | tryptophan fluorescence intensity z-score
CNc1ccccc1C(=O)O (plate: M 21-22) | inactive: 0.118
[O-][n+]1ccccc1[S-].[O-][n+]1ccccc1[S-].[Zn+2] (plate: M 3-4) | inactive: -0.372
CN[C@@H]1[C@@H](O)[C@@H](O[C@@H]2[C@@H](O)[C@H](O[C@H]3O[C@H](CN)CC[C@H]3N)[C@@H](N)C[C@H]2N)OC[C@]1(C)O.CN[C@@H]1[C@@H](O)[C@@H](O[C@@H]2[C@@H](O)[C@H](O[C@H]3O[C@H]([C@@H](C)N)CC[C@H]3N)[C@@H](N)C[C@H]2N)OC[C@]1(C)O.CN[C@@H]1[C@@H](O)[C@@H](O[C@@H]2[C@@H](O)[C@H](O[C@H]3O[C@H]([C@@H](C)NC)CC[C@H]3N)[C@@H](N)C[C@H]2N)OC[C@]1(C)O (plate: M 3-4) | inactive: -0.156
CC(=O)O[C@H]1[C@H]2[C@@H](OC(=O)Cc3ccccc3)[C@@H](C)C[C@]2(OC(C)=O)C(=O)/C(C)=C/[C@@H]2[C@H](CC[C@@]13CO3)C2(C)C (plate: M 21-22) | inactive: 0.182
NC(=O)c1cc([N+](=O)[O-])cc([N+](=O)[O-])c1 (plate: M 3-4) | inactive: 0.243
COc1ccc2c(c1O)-c1c(OC)c(OC)cc3c1[C@H](C2)N(C)CC3 (plate: M 17-18) | inactive: 0.719
O=C1CC[C@@]2(O)[C@H]3Cc4ccc(O)c5c4[C@@]2(CCN3CC2CC2)[C@H]1O5 (plate: M 9-10) | inactive: 0.342
CC(=O)[C@H]1CC[C@H]2[C@@H]3CC[C@H]4C[C@H](O)CC[C@]4(C)[C@H]3CC[C@]12C (plate: M 13-14) | inactive: 0.358
C=CCSSCC=C (plate: M 19-20) | inactive: 0.354
NCC(CC(=O)O)c1ccc(Cl)cc1 (configuration not stated) (plate: M 1-2) | inactive: 0.151
CC(NC(C)(C)C)C(=O)c1cccc(Cl)c1 (configuration not stated) (plate: M 9-10) | inactive: -0.165
O=C(O)CCCO (plate: M 1-2) | inactive: 0.524
c1ccc2c(c1)[nH]c1cnccc12 (plate: M 17-18) | inactive: 0.168
COC1=C[C@]23CCCN2CCc2cc4c(cc2[C@@H]3[C@@H]1O)OCO4 (plate: M 17-18) | inactive: 1.49
NCCCNCCSP(=O)(O)O (plate: M 13-14) | inactive: 0.443
CC(C)c1ccc2c(c1O)CC[C@H]1C3=C(CC[C@]21C)C(=O)OC3 (plate: M 19-20) | inactive: 0.427
Nc1ccc([As](=O)(O)O)cc1 (plate: M 11-12) | inactive: -0.0801
COP(=S)(OC)Oc1cc(Cl)c(Cl)cc1Cl (plate: M 11-12) | inactive: -0.662
COc1cc2occc2c2oc(=O)ccc12 (plate: M 17-18) | inactive: 0.515
COc1cccc2c1cc([N+](=O)[O-])c1c(C(=O)O)cc3c(c12)OCO3 (plate: M 19-20) | inactive: 0.662
COc1ccc(/C=C/c2cc(O)cc(O)c2)cc1 (plate: M 19-20) | inactive: -0.506
O=c1[nH]c2ccccc2n1C1CCN(CCCC(c2ccc(F)cc2)c2ccc(F)cc2)CC1 (plate: M 7-8) | inactive: 0.652
CC(=O)[O][Hg][c]1ccccc1 (plate: M 5-6) | inactive: -2.36

3 entries already listed, sorted by SMILES length, rising.
Structure (SMILES) | tryptophan fluorescence intensity z-score
CNc1ccccc1C(=O)O (plate: M 21-22) | inactive: 0.118
NCCCNCCSP(=O)(O)O (plate: M 13-14) | inactive: 0.443
NCC(CC(=O)O)c1ccc(Cl)cc1 (configuration not stated) (plate: M 1-2) | inactive: 0.151

(listing goes on)

Structure (SMILES) | tryptophan fluorescence intensity z-score
CC(=O)Nc1cc([As](=O)(O)O)ccc1O (plate: M 5-6) | inactive: 0.2
C/C=C(\C)C(=O)O[C@H]1C[C@@H](OC(C)=O)[C@@]2(C(=O)OC)CO[C@H]3[C@@H](O)[C@@](C)([C@]45O[C@@]4(C)[C@H]4C[C@@H]5O[C@@H]5OC=C[C@@]54O)[C@H]4[C@]1(CO[C@]4(O)C(=O)OC)[C@@H]32 (plate: M 19-20) | inactive: 0.239
Cc1cc2c(C(C)C)c(O)c(O)c(C=O)c2c(O)c1-c1c(C)cc2c(C(C)C)c(O)c(O)c(C=O)c2c1O (plate: M 19-20) | inactive: -0.873
COc1cc2c(cc1OC)[C@@H]1C(=O)c3ccc(OC)c(CC=C(C)C)c3O[C@@H]1CO2 (plate: M 21-22) | inactive: -0.508
C#CCN(C)[C@H](C)Cc1ccccc1 (plate: M 11-12) | inactive: -0.000539
C[C@@H]1O[C@@H](O[C@@H]2C=C3CC[C@@H]4[C@H](CC[C@]5(C)[C@@H](c6ccc(=O)oc6)CC[C@]45O)[C@@]3(C)CC2)[C@H](O)[C@H](O)[C@H]1O (plate: M 13-14) | inactive: 0.276
CN(C)C(=O)Oc1ccc[n+](C)c1 (plate: M 7-8) | inactive: -0.0161
COc1ccc(C(CN(C)C)C2(O)CCCCC2)cc1 (configuration not stated) (plate: M 9-10) | inactive: -0.172
CNC(=O)Oc1ccc2c(c1)[C@]1(C)CCN(C)[C@@H]1N2C (plate: M 5-6) | inactive: -0.0648
CN(C)C(=O)Oc1cccc([N+](C)(C)C)c1 (plate: M 3-4) | inactive: -0.364
CN1[C@H]2C[C@H](OC(=O)[C@H](CO)c3ccccc3)C[C@@H]1[C@@H](O)C2 (plate: M 17-18) | inactive: 0.588
CC(C)(N)Cc1ccccc1 (plate: M 11-12) | inactive: -0.609
CN(CC[C@H](N)CC(=O)N[C@H]1C=C[C@H](n2ccc(N)nc2=O)O[C@@H]1C(=O)O)C(=N)N (plate: M 23-24) | inactive: 0.438
COc1ccc(C(=O)O)cc1OC (plate: M 21-22) | inactive: 0.682
CC1(C)C2CC(=O)[C@]3(C)C(CC[C@@]4(C)[C@H](c5ccoc5)OC(=O)[C@H]5O[C@]543)[C@@]2(C)C(=O)C[C@H]1O (some centres not stated) (plate: M 13-14) | inactive: -0.0073
NCC(=O)c1ccccc1 (plate: M 17-18) | inactive: 0.166
O=c1c(O)c(-c2ccc(O)c(O)c2)oc2c(O)c(O)cc(O)c12 (plate: M 19-20) | inactive: -0.573
CN1CCc2cc3c(cc2C1O)OCO3 (configuration not stated) (plate: M 1-2) | inactive: 0.217
CN[C@@H]1[C@@H](O)[C@@H](O[C@@H]2[C@@H](O)[C@H](O[C@H]3O[C@H]([C@@H](C)O)[C@@H](O)[C@H](O)[C@H]3N)[C@@H](N)C[C@H]2N)OC[C@]1(C)O (plate: M 19-20) | inactive: 0.555
CC(C)C[C@H]1C(=O)N2CCC[C@H]2[C@]2(O)O[C@](NC(=O)[C@@H]3C=C4c5cccc6[nH]c(Br)c(c56)C[C@H]4N(C)C3)(C(C)C)C(=O)N12 (plate: M 1-2) | inactive: -0.146
CN1[C@@H]2CC[C@H]1C[C@@H](OC(=O)C(CO)c1ccccc1)C2 (some centres not stated) (plate: M 1-2) | inactive: 0.373
C[C@]12CCC(=O)C(O)=C1CC[C@@H]1[C@@H]2CC[C@]2(C)C(=O)CC[C@@H]12 (plate: M 23-24) | inactive: 0.252
CNC(C)(C)Cc1ccccc1 (plate: M 7-8) | inactive: 0.0187

Structure (SMILES) | tryptophan fluorescence intensity z-score
CNC(Cc1c[nH]c2ccccc12)C(=O)O (configuration not stated) (plate: M 19-20) | inactive: 0.512
O=C(NC(=O)c1ccccc1Cl)Nc1ccc(OC(F)(F)F)cc1 (plate: M 23-24) | inactive: 0.248
CCCCCCCCCCCCCCCC[n+]1ccccc1 (plate: M 1-2) | inactive: 0.413
C=CCC1(C(C)CCC)C(=O)NC(=S)NC1=O (configuration not stated) (plate: M 13-14) | inactive: 0.0654
c1ccc(/N=N/c2ccccc2)cc1 (plate: M 21-22) | inactive: 0.212
COP(=S)(OC)Oc1ccc(Sc2ccc(OP(=S)(OC)OC)cc2)cc1 (plate: M 1-2) | inactive: 0.715
O=P1(N(CCCl)CCCl)NCCCO1 (configuration not stated) (plate: M 1-2) | inactive: 0.496
c1ccc2c(c1)sc1ccccc12 (plate: M 1-2) | inactive: 0.391
CN1C(=O)CCS(=O)(=O)C1c1ccc(Cl)cc1 (configuration not stated) (plate: M 23-24) | inactive: -0.0571
COc1cc([C@@H]2c3cc4c(cc3[C@H](OC(C)=O)[C@H]3COC(=O)[C@@H]23)OCO4)cc(OC)c1OC (plate: M 19-20) | inactive: 0.634
O=C(O)Cc1cnc[nH]1 (plate: M 21-22) | inactive: 0.474
COC(=O)NC(=S)Nc1ccccc1NC(=S)NC(=O)OC (plate: M 23-24) | inactive: 0.463
CC(C)=CCC[C@]1(C)C=Cc2c(O)c3c(c(CC=C(C)C)c2O1)O[C@]12C(=C[C@@H]4C[C@H]1C(C)(C)O[C@@]2(C/C=C(/C)C(N)=O)C4=O)C3=O (plate: M 15-16) | inactive: 0.243
CC1CC(Cl)CCC1C(=O)OC(C)(C)C (configuration not stated) (plate: M 23-24) | inactive: 0.41
Cl[C@H]1[C@H](Cl)[C@@H](Cl)[C@@H](Cl)[C@H](Cl)[C@H]1Cl (plate: M 1-2) | inactive: 0.138
CNC(=O)Oc1cccc2c1OC(C)(C)C2 (plate: M 11-12) | inactive: -0.0492
COc1cc([C@@H]2c3cc4c(cc3[C@@H](O)[C@H]3COC(=O)[C@H]23)OCO4)cc(OC)c1O (plate: M 23-24) | inactive: 0.535
CCCC(C)(COC(N)=O)COC(=O)NC(C)C (configuration not stated) (plate: M 1-2) | inactive: 0.348
C[C@@]12C(=O)OC(=O)[C@]1(C)[C@H]1CC[C@@H]2O1 (plate: M 21-22) | inactive: -0.114
COC(C)(C)CCC[C@H](C)C/C=C/C(C)=C/C(=O)OC(C)C (plate: M 23-24) | inactive: 0.36
COc1cc(OC)c(OC)cc1C=O (plate: M 15-16) | inactive: 0.515
